Out of some 1,300 compounds screened, about 65 (5%) were called active.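 Rule for the calls: active = growth inhibition reaching a set limit at one or more tested doses; inactive = the rest.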 This is one part of the list. Measured potencies and affinities stand elsewhere.
experiment: wild-type E. coli BW25113 antibacterial activity – OD615, dose response (AID 638); conditions: at 100 µM (top of the series) unless noted
Summary of the method: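 Material – E. coli BW25113 wild type · Medium – Kanamycin-supplemented LB broth · Doses – compound dilution series for dose-response · Incubation – 20 h compound exposure, 37 °C · Technique – optical density (absorbance) at 615 nm · Read-out basis – IC50 from 4-parameter logistic, bounds fixed 0–100% · Control set – chloramphenicol at 30 µM final as inhibition control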

Growth inhibition, inactive:
O=C(c1noc2c1CCc1ccccc1-2)N1CCc2ccccc2C1 2.46%
Cc1c(CCC(=O)O)c(=O)oc2cc3occ(-c4ccc(F)cc4)c3cc12 -11.1%
O=C(CCSc1nc(-c2ccco2)cc(C(F)(F)F)n1)N1CCCc2ccccc21 10.2%
CC1CN(S(=O)(=O)c2ccc(C(=O)Nc3nnc(-c4ccc5c(c4)CCCC5)o3)cc2)CC(C)O1 (stereo not given) -1.85%
Cc1cc(Nc2ccccc2)nc(-c2ccccc2O)n1 -4.57%
CCn1cc(C(=O)OCC(=O)OC2CC(C)CCC2C(C)C)c(=O)c2ccc(C)nc21 (stereo not given) 1.12%
CC1=CCC(COC(=O)Nc2ccccc2)CC1 (stereo not given) 10.3%
COC(=O)c1[nH]c2cccc(OC)c2c1NC(=O)CN1CC2(C)CC1CC(C)(C)C2 (stereo not given) 14%
C=CCOC(=O)C(C#N)c1nc2ccccc2nc1N1CCCC1 (stereo not given) -1.85%
CCOC(=O)c1cn(CC)c2cc(N3CCSCC3)c(F)cc2c1=O 10.1%
COCc1cc(C)nc2sc3c(=O)oc(C)nc3c12 10.4%
Cc1nc2ncnn2c(N2CCN(C(c3ccccc3)c3ccccc3)CC2)c1C 0.39%
O=C(COC(=O)c1ccc(Oc2ccccc2)cc1)Nc1nnc(-c2ccccc2)o1 -3.62%
Cc1cc(=O)[nH]c(SCC(=O)C23CC4CC(CC(C4)C2)C3)c1C#N -9.63%
CCOC(=O)c1ccccc1NC(=O)C(C)Oc1ccccc1 (stereo not given) -0.25%
CCCOc1ccccc1NC(=O)c1c(-c2ccccc2)noc1C 4.48%
Cc1ccc(Cl)cc1N1CCN(C(=O)c2ccc(NS(=O)(=O)c3c(C)noc3C)cc2)CC1 -7.75%
CCCCOc1ccc(S(=O)(=O)N2CCCCCC2)cc1 6.59%
O=C(Nc1nnc(-c2ccc(F)cc2)o1)c1ccco1 1.59%
CC1CCCCN1C(=O)CSc1nc(C2CC2)nc2c1cnn2-c1ccccc1 (stereo not given) -10.1%
CCOC(=O)N1CCC(c2cc(=O)n3[nH]c(C)c(-c4ccc(F)cc4)c3n2)CC1 -7.78%
CC(=O)c1c(O)cc(C)n(Nc2nc(C)cc(C)n2)c1=O -10.9%
Cc1cccc(Cc2c(C)nc3c(C(=O)NCc4ccco4)cnn3c2C)c1 -16.1%
O=C(c1ccc(COc2ccccc2Br)o1)N1CCCCCC1 6.17%
Cc1nc2ccc(C(C(F)(F)F)(C(F)(F)F)C(F)(F)F)cc2[nH]1 8.28%

Two records drawn at random from the list so far:
Growth inhibition, inactive:
O=C(COC(=O)c1ccc(Oc2ccccc2)cc1)Nc1nnc(-c2ccccc2)o1 -3.62%
Cc1cccc(Cc2c(C)nc3c(C(=O)NCc4ccco4)cnn3c2C)c1 -16.1%
